Test results as given in article PMC7819943, “Rice protein-binding microarrays: a tool to detect cis-acting elements near promoter regions in rice”.
Some of the results follow.

The chains behind the UniProt entries cited, without tags or fusion partners.
UniProt Q0JBA9, entry or part of it: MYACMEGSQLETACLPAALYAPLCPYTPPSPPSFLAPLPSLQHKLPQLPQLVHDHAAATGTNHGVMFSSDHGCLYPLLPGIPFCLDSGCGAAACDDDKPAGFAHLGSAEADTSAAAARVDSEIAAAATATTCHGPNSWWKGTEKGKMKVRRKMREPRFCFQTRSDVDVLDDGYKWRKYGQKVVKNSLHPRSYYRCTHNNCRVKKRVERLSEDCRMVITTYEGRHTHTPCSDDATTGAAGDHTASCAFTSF

What follows are sequences tested against OsWRKY34 (Oryza sativa, UniProt Q0JBA9 1-250) (assay: protein-binding microarray (RPBM); PBS, 2% BSA, 51.3 ng/ul salmon testes DNA, 50 uM zinc acetate, 200 nM TF, 25 C, 1 h; high values mean tight binding). Conditions: protein: recombinant; tags: N-terminal polyhistidine and DsRed monomer fusion (pET32a); label: CyDye5-dUTP incorporated in the synthesized complementary strand; 3' TTTTT single-stranded linker to array surface; dsDNA, one strand shown.
Procedure, shortened: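 The binding signal is fluorescence intensity per array feature (arbitrary units). Readings came from an Axon 4000B scanner after a washed, 2% BSA-blocked, double-stranded custom Agilent array had been incubated for 1 h at 25 °C with 200 nM protein and 50 µM zinc acetate. The protein was a Ni–NTA-purified transcription factor fused N-terminally to polyhistidine and DsRed, expressed in E. coli BL21-CodonPlus.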

Sequence | binding signal
GGCAGGGGTTCGTCTTTCTTAGGTACGTTAAGAGTTGAAACGGAGTCACCTAGTGCAG | 12100 fluorescence intensity (a.u.)
AATAGTGGGGATGGTGCATGTATTGAGTTTGTTGCTAGAGCGGAGTCACCTAGTGCAG | 8850 fluorescence intensity (a.u.)
CTCTACTCCTGCCCGGAAACTTATTACTCCTTGTCACAGTCGGAGTCACCTAGTGCAG | 12200 fluorescence intensity (a.u.)
TTTTTTAGTTTCAATTTTTGTTTTGCTTTTTCTCCCTTCTCGGAGTCACCTAGTGCAG | 10300 fluorescence intensity (a.u.)
TCTCATCCATCCGTCCCACCATGTATATACCCGCCCACCACGGAGTCACCTAGTGCAG | 9040 fluorescence intensity (a.u.)
ACCATTTGTGTTTATTCTTGTACATGTGCAGTGCGAGCTGCGGAGTCACCTAGTGCAG | 9210 fluorescence intensity (a.u.)
GTGCCATCTTTTTTGTATCTTTCCTTTGATCATTTGCCTTCGGAGTCACCTAGTGCAG | 11600 fluorescence intensity (a.u.)
TCTTCCTCAGCATTTCCACCGCTCTTCCACGCACCCTACTCGGAGTCACCTAGTGCAG | 12500 fluorescence intensity (a.u.)
ACCGATTCCTCCGCCCCGACCTCCTCACCCACCCACCGGCCGGAGTCACCTAGTGCAG | 8350 fluorescence intensity (a.u.)
GATTTTTAGTGAATATAATGAAATTTCATAGGGGAGGGGCCGGAGTCACCTAGTGCAG | 8930 fluorescence intensity (a.u.)
TCTTCTTTATCTACATCTTCTTCTGCTTCTTCCTTCCAGCCGGAGTCACCTAGTGCAG | 9230 fluorescence intensity (a.u.)
GCTGCCGCTCTCGCCATACCGACTCGTGTCGCACGGTCGCCGGAGTCACCTAGTGCAG | 8680 fluorescence intensity (a.u.)
AAAACACCAGGTAGACTGTTCAACTGATTGGTCTCACACCCGGAGTCACCTAGTGCAG | 8790 fluorescence intensity (a.u.)
GGGCGGGGAGGGAATCGATGACTTCTTCCCCTCCCACACGCGGAGTCACCTAGTGCAG | 8490 fluorescence intensity (a.u.)
TTTTTTTTTTTTTTTGGTCTTGCTGTCTTGCGTGTATGCACGGAGTCACCTAGTGCAG | 9690 fluorescence intensity (a.u.)
TTCGCGGGTGATGTGTTTCTGTTTTGTCCTGAAATTACAGCGGAGTCACCTAGTGCAG | 9080 fluorescence intensity (a.u.)
TGGCTGAGCTTCTTTGCGTGTTCTTGTTTGGGTTTTGGGGCGGAGTCACCTAGTGCAG | 18700 fluorescence intensity (a.u.)
TTCCTTGTTCCTTGTAAACACACGATGTACGTTCTTGTTCCGGAGTCACCTAGTGCAG | 12900 fluorescence intensity (a.u.)
GCCGCCTCATCCACCCCACGCCCACCGCCTCCGTGGACCGCGGAGTCACCTAGTGCAG | 8570 fluorescence intensity (a.u.)
AGGCTGACATCCTTGACCCACATAATCGTTGACCTGGCTACGGAGTCACCTAGTGCAG | 10300 fluorescence intensity (a.u.)
CGTCGTTGCCCTTGCTTTTGAGTGTTTGAAAGAGTTCATGCGGAGTCACCTAGTGCAG | 10000 fluorescence intensity (a.u.)
CTTCTTTCCTATACCACCACCACCTTTCTGTGCTCCCAAACGGAGTCACCTAGTGCAG | 8090 fluorescence intensity (a.u.)
ACAGTGAGTGTCAAGTTTTATATTCCTGGAATAAAGTTCACGGAGTCACCTAGTGCAG | 8100 fluorescence intensity (a.u.)

An excerpt of these results, as a markdown table.

| Sequence | binding signal |
| --- | --- |
| TCTCATCCATCCGTCCCACCATGTATATACCCGCCCACCACGGAGTCACCTAGTGCAG | 9040 fluorescence intensity (a.u.) |
| ACCATTTGTGTTTATTCTTGTACATGTGCAGTGCGAGCTGCGGAGTCACCTAGTGCAG | 9210 fluorescence intensity (a.u.) |
| GTGCCATCTTTTTTGTATCTTTCCTTTGATCATTTGCCTTCGGAGTCACCTAGTGCAG | 11600 fluorescence intensity (a.u.) |
| TCTTCCTCAGCATTTCCACCGCTCTTCCACGCACCCTACTCGGAGTCACCTAGTGCAG | 12500 fluorescence intensity (a.u.) |
| ACCGATTCCTCCGCCCCGACCTCCTCACCCACCCACCGGCCGGAGTCACCTAGTGCAG | 8350 fluorescence intensity (a.u.) |
| GATTTTTAGTGAATATAATGAAATTTCATAGGGGAGGGGCCGGAGTCACCTAGTGCAG | 8930 fluorescence intensity (a.u.) |
